Where a chain is given by its changes, count along the chain named. These are yes or no findings as the source states them, for the method shown. Some binding calls cover weakened binding; strength is not graded here.
B1: 4C9 mouse anti-ErbB2 monoclonal antibody (antibody, mouse IgG1, V domains shown)
VH: QVQLQQSGAELARPGASVKMSCKASGYTFTSYTMHWVKQRPGQGLDWIGYINPSSGYTTYNQKFKDKATLTADKSSSTAYMQLSSLASADSAVYYCARASAYSLDYWGQGTTLTVSS
VL: DIQMTQSPSSLSASLGGRVTITCKASHDIDRYIAWYQHKPGKGPRLLIHYTSTLQPGIPSRFSGSGSGRDYSFSISNLEPEDIATYYCLKYDNLLWTFGGGTKLEIT
notes: also called 4C9G3F5; IgG 4C9
B2: 4H2 mouse anti-ErbB2 monoclonal antibody (antibody, mouse IgG1, V domains shown)
VH: B1 VH with Y27F, M34I, K63R, A87T
VL: B1 VL with R18K, H27Q, D70N, T107K
notes: also called 4H2H2H9; IgG 4H2
B3: 4G6 mouse anti-ErbB2 monoclonal antibody (antibody, mouse IgG1, V domains shown)
VH: B1 VH with D46E, G56A, T59N, Y80N, S84N, A87T, A89E, T112A
VL: DIQMTQSPSSLSASLGGKVTITCKASQDINKYIAWYQHKPGKGPRLLIHSTSTLYPGIPSRFSGSGSGRDYSFRITNLEPEDIATYYCLQYDNLLWTFGGGTKVGIR
notes: also called 4G6C9B8; IgG 4G6
B4: 5F12 mouse anti-ErbB2 monoclonal antibody (antibody, mouse IgG1, V domains shown)
VH: QVQLQQSGAELARPGASVKMSCKASGYTFTSYTMHWIKQRPGQGLEWIGYINPSSSYTNYNQNFKDKATLTADKSSSTANMQLNSLTSEDSAVYYCARASSYSLDYWGQGTALTVSS
VL: B3 VL with A13T, R69K, V104L
notes: also called 5F12E5A8; IgG 5F12
B5: 5G9 mouse anti-ErbB2 monoclonal antibody (antibody, mouse IgG1, V domains shown)
VH: B1 VH with A24T, T30S, M34I, G56D, T59A, K65R, K74Q, S77N, Y102F, Y106F
VL: B1 VL with R18K, T22S, I83V, K90N
notes: also called 5G91B42A3; IgG 5G9
B6: 4H2 chimera (antibody, V domains shown)
VH: B1 VH with Y27F, M34I, K63R, A87T
VL: B1 VL with R18K, H27Q, D70N, T107K
notes: also called 4H2 chimeric antibody
B7: 5F12 chimera (antibody, V domains shown)
VH: B4 VH
VL: B3 VL with A13T, R69K, V104L
notes: also called 5F12 chimeric; 5F12 chimeric antibody
B8: 4C9 chimera (antibody, V domains shown)
VH: B1 VH
VL: B1 VL
notes: also called 4C9 chimeric antibody
B9: 4G6 chimera (antibody, V domains shown)
VH: B4 VH with I37V, S56A, N63K, S101A
VL: B3 VL
notes: also called 4G6 chimeric antibody
B10: 5G9 chimera (antibody, V domains shown)
VH: B1 VH with A24T, T30S, M34I, G56D, T59A, K65R, K74Q, S77N, Y102F, Y106F
VL: B1 VL with R18K, T22S, I83V, K90N
notes: also called 5G9 chimeric; 5G9 chimeric antibody

Each binder was assayed against recombinant Macaca fascicularis ErbB2-ECD (Macaca fascicularis) (assay: indirect ELISA).
With B1 the binding was “binds”.
B2 was tested, and the binding was “binds”.
With B3 the binding was “binds”.
In the case of B4, the binding is reported as “binds”.
In the case of B5, the binding is reported as “binds”.

The binders below were run against recombinant Macaca fascicularis ErbB2-ECD (Macaca fascicularis) (assay: indirect ELISA, coated ErbB2-ECD 1 ug/ml).
In the case of B1, the binding is reported as “binds”.
For B2, the binding was “binds”.
B3 was tested, and the binding was “binds”.
With B4 the binding was “binds”.
With B5 the binding was “binds”.

What follows are binders tested against recombinant Macaca fascicularis ErbB2-ECD (Macaca fascicularis) (assay: indirect ELISA, coated ErbB2-ECD).
With B6 the binding was “binds”.
B7 was tested, and the binding was “binds”.
In the case of B8, the binding is reported as “binds”.
With B9 the binding was “binds”.
In the case of B10, the binding is reported as “binds”.
